Data taken from paper PMC10289004.
No constants are given. Whether binding was seen depends on the method and setting. In cells and extracts the contact can be indirect. Some results given as binding are weak or reduced against the parent protein; the word gives no strength.

The chains behind the UniProt entries cited, without tags or fusion partners. Where a name states a change or a piece, a line headed by the entry shows the natural chain unless it says otherwise.
UniProt Q13546: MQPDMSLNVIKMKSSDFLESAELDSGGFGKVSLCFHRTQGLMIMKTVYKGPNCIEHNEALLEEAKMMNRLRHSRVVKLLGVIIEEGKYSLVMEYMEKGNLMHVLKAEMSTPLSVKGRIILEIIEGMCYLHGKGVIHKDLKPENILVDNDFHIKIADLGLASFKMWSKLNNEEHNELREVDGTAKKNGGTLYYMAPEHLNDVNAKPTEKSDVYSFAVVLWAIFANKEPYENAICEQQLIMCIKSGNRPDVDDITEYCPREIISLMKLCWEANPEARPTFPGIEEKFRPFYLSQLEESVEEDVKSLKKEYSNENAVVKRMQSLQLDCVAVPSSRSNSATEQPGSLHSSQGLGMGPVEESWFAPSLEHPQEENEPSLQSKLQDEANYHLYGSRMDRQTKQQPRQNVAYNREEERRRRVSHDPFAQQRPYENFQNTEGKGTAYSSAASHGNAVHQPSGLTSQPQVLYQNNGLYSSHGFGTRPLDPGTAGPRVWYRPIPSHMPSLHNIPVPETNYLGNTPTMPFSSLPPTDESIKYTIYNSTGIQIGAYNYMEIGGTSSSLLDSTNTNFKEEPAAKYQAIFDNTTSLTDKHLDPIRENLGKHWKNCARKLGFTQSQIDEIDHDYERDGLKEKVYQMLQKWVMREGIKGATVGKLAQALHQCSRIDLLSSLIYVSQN
UniProt Q9Y572: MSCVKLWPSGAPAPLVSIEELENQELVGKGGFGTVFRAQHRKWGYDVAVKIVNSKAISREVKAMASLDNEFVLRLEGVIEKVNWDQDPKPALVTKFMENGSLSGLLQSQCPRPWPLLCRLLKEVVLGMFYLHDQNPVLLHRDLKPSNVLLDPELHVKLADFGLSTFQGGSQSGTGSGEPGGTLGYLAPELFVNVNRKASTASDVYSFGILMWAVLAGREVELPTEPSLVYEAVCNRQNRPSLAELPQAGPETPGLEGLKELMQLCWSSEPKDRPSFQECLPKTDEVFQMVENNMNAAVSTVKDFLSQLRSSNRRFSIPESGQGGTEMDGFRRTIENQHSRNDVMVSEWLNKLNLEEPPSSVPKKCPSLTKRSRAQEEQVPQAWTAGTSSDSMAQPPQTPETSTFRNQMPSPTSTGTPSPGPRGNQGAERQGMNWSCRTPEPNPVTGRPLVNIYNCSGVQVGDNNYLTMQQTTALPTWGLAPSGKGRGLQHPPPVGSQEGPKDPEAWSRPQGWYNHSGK
UniProt Q9QZL0: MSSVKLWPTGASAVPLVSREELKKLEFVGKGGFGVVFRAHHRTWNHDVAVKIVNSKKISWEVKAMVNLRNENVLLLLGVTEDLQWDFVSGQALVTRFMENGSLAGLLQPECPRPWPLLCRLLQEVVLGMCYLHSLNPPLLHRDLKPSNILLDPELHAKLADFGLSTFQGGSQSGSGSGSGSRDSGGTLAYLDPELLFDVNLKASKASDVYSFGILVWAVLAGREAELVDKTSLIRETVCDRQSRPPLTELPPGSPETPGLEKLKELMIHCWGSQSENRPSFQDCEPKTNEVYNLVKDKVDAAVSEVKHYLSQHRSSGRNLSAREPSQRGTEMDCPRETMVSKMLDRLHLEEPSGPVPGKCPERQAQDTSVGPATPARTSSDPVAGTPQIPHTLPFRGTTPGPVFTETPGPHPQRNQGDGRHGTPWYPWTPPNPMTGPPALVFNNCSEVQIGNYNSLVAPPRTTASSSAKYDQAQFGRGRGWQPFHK

Legend:
HA-RIPK1 S331A (human) = HA-RIPK1 S331A (human) (UniProt Q13546); experiment: co-IP; HEK293 cells co-transfected with HA-RIPK1 (WT or S331A) and FLAG-RIPK3, lysed 24 h later; with or without co-transfected OGT or TMG treatment
[1] = target: HA-RIPK1 wild type (human) (UniProt Q13546); experiment: as above
[2] = target: RIPK1 S331A reconstituted in MEF Ripk1-/- cells (human) (UniProt Q13546); experiment: co-IP; MEF Ripk1-/- cells transfected with RIPK1 WT or S331A for 20-24 h, then 4 h TSZ, lysed; endogenous RIPK3

Row | binding (HA-RIPK1 S331A (human)) | binding [1] | binding [2] | Substance
1 | binds | binds |  | FLAG-RIPK3 (from UniProt Q9Y572 1-518)
2 |  |  | binds | endogenous RIPK3 in MEF Ripk1-/- cells (from UniProt Q9QZL0 1-486)
